Construct, isoform or probe ends are uncertain for at least one entry. At least one result comes from cells or an extract, where the contact may be indirect. For some assays here: The comparison behind a weaker result is the experiment's own reference, which may not be listed here. Protein sequences can lack the tags named with them.
Assays:
[1] = target: T1, MEF2D (mouse (BV2 microglia cell line)) (UniProt Q63943); assay: EMSA; conditions: BV2 whole cell extract, complex nearly abolished; EMSA as described in ref 23; antibody 1 h at 4 C after incubation with labeled probe; salt and pH not given; protein in an extract
T1 sequence (looked up, limits assumed): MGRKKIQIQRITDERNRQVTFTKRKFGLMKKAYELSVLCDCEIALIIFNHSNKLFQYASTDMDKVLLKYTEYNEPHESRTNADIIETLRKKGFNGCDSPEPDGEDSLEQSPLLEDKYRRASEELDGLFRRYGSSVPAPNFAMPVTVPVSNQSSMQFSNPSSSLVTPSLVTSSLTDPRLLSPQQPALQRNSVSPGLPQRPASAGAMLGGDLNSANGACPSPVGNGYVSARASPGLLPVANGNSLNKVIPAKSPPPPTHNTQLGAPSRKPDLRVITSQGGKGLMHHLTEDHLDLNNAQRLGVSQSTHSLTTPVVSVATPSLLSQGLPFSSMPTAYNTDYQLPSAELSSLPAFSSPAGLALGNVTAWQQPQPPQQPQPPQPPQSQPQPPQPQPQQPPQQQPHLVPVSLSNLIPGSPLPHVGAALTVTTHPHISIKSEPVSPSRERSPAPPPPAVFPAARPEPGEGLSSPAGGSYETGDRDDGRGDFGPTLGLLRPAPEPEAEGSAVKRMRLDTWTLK

[2] = target: T1, MEF2D (mouse (BV2 microglia cell line)); assay: EMSA supershift; conditions: BV2 whole cell extract, complex increased after LPS 24 h; EMSA as described in ref 23; antibody 1 h at 4 C after incubation with labeled probe; salt and pH not given; protein in an extract

Row | Sequence | binding result [1] | binding result [2]
1 | TCGACGGGCGATTTTTCGGGCCG (double strand) [MEF2 mutant probe (MT)] | binds more weakly | 
2 | TCGACGGGCTATTTTTAGGGCC (double strand) [MEF2 wild type probe] |  | binds

From paper PMC4339472
